Test results from US20260217863A1, “ANTIBODY OR PEPTIDE BINDING SPECIFICALLY TO RNASE A, IMMUNOASSAY DEVICE AND METHOD FOR DETECTING RNASE A, AND METHOD FOR COLLECTING RNASE A” (UIF (University Industry Foundation), Yonsei University, priority 2022, published 2026).
Results are given in words; binding and its absence hold for the method and conditions named. Some results given as binding are weak or reduced against the parent protein; the word gives no strength.

Protein sequences, listed by entry. Tags and fused reporters are not part of them. Residues count along the entry.
UniProt P61823, residues 27-150: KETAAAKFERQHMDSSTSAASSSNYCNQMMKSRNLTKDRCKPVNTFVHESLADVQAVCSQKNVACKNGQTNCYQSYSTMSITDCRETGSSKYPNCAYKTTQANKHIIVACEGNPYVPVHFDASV

The binders below were run against Ribonuclease A (Type II-A) from bovine pancreas (bovine) (UniProt P61823) (assay: SPR, RNase A immobilized on the Au chip, peptide in solution).

binding, binds:
CGPDSDVMTDF [Peptide-1, synthetic peptide with the CDR3 sequence of the screened clone]
YGPVGRVKRDD [Peptide-2, synthetic peptide with the CDR3 sequence of the screened clone]
DGTAKKSRKDD [Peptide-3, synthetic peptide with the CDR3 sequence of the screened clone]

What follows are binders tested against Ribonuclease A (Type II-A) from bovine pancreas (bovine) (UniProt P61823) (assay: SPR biosensor, RNase A immobilized on the Au chip).

binding, binds:
CGPDSDVMTDF [Peptide-1, synthetic peptide with the CDR3 sequence of the screened clone]
YGPVGRVKRDD [Peptide-2, synthetic peptide with the CDR3 sequence of the screened clone]
DGTAKKSRKDD [Peptide-3, synthetic peptide with the CDR3 sequence of the screened clone]

Each binder was assayed against Ribonuclease A (Type II-A) from bovine pancreas (bovine) (UniProt P61823) (assay: competitive binding analysis using ssDNA (51 bp) as a model RNA).

binding, binds:
CGPDSDVMTDF [Peptide-1, synthetic peptide with the CDR3 sequence of the screened clone]
YGPVGRVKRDD [Peptide-2, synthetic peptide with the CDR3 sequence of the screened clone]
DGTAKKSRKDD [Peptide-3, synthetic peptide with the CDR3 sequence of the screened clone]
